The results in this text go back to publication PMC8443252.

Protein sequences, listed by entry. Tags and fused reporters are not part of them.
UniProt Q7JV23: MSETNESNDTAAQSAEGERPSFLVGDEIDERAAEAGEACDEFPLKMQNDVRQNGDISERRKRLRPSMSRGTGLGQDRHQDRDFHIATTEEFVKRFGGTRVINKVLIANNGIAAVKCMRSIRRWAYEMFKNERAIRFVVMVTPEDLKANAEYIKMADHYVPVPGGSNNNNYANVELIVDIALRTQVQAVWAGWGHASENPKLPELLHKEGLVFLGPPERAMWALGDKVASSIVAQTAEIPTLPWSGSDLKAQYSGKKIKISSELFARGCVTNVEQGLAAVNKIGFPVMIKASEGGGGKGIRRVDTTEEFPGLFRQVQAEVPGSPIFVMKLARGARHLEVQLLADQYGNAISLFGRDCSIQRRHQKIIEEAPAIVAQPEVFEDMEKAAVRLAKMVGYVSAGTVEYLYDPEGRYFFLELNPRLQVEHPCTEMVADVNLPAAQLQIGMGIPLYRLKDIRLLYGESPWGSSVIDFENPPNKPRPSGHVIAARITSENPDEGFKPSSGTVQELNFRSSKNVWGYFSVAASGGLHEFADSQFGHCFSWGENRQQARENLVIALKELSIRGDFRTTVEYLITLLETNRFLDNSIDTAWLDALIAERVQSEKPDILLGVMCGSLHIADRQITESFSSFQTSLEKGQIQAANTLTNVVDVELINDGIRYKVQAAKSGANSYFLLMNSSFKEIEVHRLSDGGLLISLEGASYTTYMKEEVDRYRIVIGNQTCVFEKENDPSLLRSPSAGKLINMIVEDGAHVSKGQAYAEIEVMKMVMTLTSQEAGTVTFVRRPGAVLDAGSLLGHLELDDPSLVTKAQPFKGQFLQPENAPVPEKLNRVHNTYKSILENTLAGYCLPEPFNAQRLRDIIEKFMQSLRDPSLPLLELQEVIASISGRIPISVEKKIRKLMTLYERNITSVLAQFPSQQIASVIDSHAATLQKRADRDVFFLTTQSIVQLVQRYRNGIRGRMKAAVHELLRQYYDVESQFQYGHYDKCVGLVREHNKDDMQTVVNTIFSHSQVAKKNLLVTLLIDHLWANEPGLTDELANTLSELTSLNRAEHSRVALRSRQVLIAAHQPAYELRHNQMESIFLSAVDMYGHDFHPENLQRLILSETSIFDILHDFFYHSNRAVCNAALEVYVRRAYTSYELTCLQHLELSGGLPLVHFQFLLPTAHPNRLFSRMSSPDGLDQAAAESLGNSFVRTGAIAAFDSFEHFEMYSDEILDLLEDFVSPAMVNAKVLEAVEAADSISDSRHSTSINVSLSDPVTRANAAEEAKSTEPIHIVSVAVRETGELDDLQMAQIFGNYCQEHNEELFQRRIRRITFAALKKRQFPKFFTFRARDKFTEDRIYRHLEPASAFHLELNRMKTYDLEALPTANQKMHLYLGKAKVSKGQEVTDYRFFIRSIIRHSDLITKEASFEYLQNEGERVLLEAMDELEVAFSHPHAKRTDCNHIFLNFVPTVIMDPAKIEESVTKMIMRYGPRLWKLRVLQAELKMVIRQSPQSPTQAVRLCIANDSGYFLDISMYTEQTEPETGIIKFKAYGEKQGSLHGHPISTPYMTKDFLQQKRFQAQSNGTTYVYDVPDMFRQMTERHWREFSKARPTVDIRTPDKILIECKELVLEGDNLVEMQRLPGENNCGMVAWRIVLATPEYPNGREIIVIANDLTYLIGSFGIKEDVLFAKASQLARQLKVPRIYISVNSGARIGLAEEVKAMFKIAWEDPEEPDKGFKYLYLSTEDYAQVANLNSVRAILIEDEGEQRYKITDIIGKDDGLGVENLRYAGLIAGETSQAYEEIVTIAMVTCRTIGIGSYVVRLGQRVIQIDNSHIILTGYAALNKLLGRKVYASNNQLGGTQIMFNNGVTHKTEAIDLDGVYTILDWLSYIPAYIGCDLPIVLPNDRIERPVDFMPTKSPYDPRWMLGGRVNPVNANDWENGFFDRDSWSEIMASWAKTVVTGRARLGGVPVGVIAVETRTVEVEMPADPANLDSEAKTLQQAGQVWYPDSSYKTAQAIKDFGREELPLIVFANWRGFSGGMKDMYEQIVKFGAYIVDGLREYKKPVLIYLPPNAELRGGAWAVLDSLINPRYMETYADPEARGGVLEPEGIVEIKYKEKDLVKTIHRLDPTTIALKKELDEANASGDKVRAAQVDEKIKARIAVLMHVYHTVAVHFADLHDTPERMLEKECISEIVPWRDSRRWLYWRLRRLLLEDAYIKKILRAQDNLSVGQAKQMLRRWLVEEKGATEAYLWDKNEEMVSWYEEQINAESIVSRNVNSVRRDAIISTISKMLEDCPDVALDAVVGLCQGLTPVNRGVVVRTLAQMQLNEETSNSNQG

The target in the experiment is acetyl-CoA carboxylase (D. melanogaster (endogenous in flies)) (UniProt Q7JV23). The experiment in a line: co-IP; ACC immunoprecipitated with rabbit anti-ACC from abdomens of 5-day-old adult males; 10 mM Tris pH 7.4, 100 mM NaCl, 0.02% Triton X-100; normal rabbit IgG as control; flies: w1118 control, dSTING deletion, rescue (dSTING deletion; GFP-dSTING), cg-GAL4/GFP-dSTING.

Results are given in words; binding and its absence hold for the method and conditions named. In cells and extracts the contact can be indirect. Some results given as binding are weak or reduced against the parent protein; the word gives no strength. Tags and fused reporters may be left off the sequences shown.

B1: GFP-tagged Drosophila STING (protein, UniProt A0A0B4LFY9 1-343)
chain: MAIASNVVEAGNAVRAEKGRKYFYFRKMIGDYIDTSIRIVATVFLADLLLRLYRCVVEYGSNGRYYLPEDRLWIILRRSCTYNNRSIYLIVGFLLVAFFRISVTGNYRNVMPTTLFLFQMPLYWIWSFTDMDQSTLSYSHWIRDSHGLDYAAGMASNYFHGYLKLSLPERKDDGLKHRLAMYEDKNNVTFGIKRLVILIPDEMFVNGVLESHLLDKAEPLETQFINRAGVYRPFKHDVYRMNKKVNGRTYYFAVEGATPMISFFDATYSNLSGTWQMQELKREIWIKFYKHLKELITTWPETRDLVELIIYNSHDSKGNLVDVGELLVAHMQNKTKTIDEISN
Turning to B1, the binding result was “binds”.
